The list does not hold the whole screen: it gathers tests that were run many times, whatever their T/C, doses with no T/C, and many T/C values between a quarter and a half above the control. Further doses and runs are listed elsewhere. T/C gives the treated animals as a percentage of the vehicle group. Some entries give survivors of the animals treated and no T/C: the source files T/C as zero there, which appears to mark a toxic dose or a test without result, not a measured value. Some survivor counts are full or nearly so, which does not show that the dose was tolerated: survival well below the control is almost never listed, so the zero probably covers shortened survival too. Survivors were counted at the toxicity check, usually on the fifth day, unless a day is given; later deaths do not show. Schedules are NCI's codes, taken here to give the interval after Q, in days (D) or hours (H), and the number of doses after X. Some entries hold several experiments; the values are given in rising order. Some schedules carry Z or #; the key to these is not given. For survival time, the PubChem record calls one and a half times the control and up active, and a quarter to a half above the control has no call in these data; cut-offs in other NCI protocols can differ.
System: L1210 leukemia ip in BDF1 mice, survival T/C
Assay: NCI In Vivo Anticancer Drug Screen. Data for tumor model L1210 Leukemia (intraperitoneal) in B6D2F1 (BDF1) mice
Details: T/C endpoint: mean survival time, higher T/C = longer survival
[1] = dose: 400.0 mg/kg/injection, schedule: Q04DX003 (ip), vehicle: saline with Tween-80

For `CCC(N)CC`, the survivor count (dose: 75.0 mg/kg/injection, schedule: Q01DX009 (ip), vehicle: saline) was 6 of 6, the survivor count (dose: 300.0 mg/kg/injection, schedule: Q01DX009 (ip), vehicle: saline) was 0 of 6 and 6 of 6 and the survivor count (dose: 400.0 mg/kg/injection, schedule: Q04DX003 (ip), vehicle: saline) was 2 of 6.

For `C[N+](C)(C)CCCC#CC[N+]1(C)CCOCC1`, the T/C (dose: 5.0 mg/kg/injection, schedule: Q01DX009 (ip), vehicle: saline) was 146 % of control, the T/C (dose: 23.0 mg/kg/injection, schedule: Q01DX009 (ip), vehicle: saline) was 136 % of control and the T/C (dose: 39.0 mg/kg/injection, schedule: Q07DX009 (ip), vehicle: saline) was 140 % of control.

For `Cc1ccccc1[P+](Cc1ccccc1)(c1ccccc1)c1ccccc1C`, the survivor count (dose: 30.0 mg/kg/injection, schedule: Q01DX001 (ip), vehicle: saline) was 3 of 6, the survivor count (dose: 60.0 mg/kg/injection, schedule: Q01DX001 (ip), vehicle: saline) was 1 of 6 and the survivor count (dose: 75.0 mg/kg/injection, schedule: Q01DX001 (ip), vehicle: saline) was 0 of 6. For the same compound, the survivor count (dose: 150.0 mg/kg/injection, schedule: Q01DX001 (ip), vehicle: saline) was 0 of 6 and the survivor count (dose: 300.0 mg/kg/injection, schedule: Q01DX001 (ip), vehicle: saline) was 0 of 6.

For `c1nc2c([nH]1)CCCC2`, the survivor count (dose: 100.0 mg/kg/injection, schedule: Q01DX001 (ip), vehicle: carboxymethylcellulose (CMC)) was 0 of 6, the survivor count (dose: 100.0 mg/kg/injection, schedule: Q01DX009 (ip), vehicle: carboxymethylcellulose (CMC)) was 0 of 3 and 0 of 6 and the survivor count (dose: 100.0 mg/kg/injection, schedule: Q04DX002 (ip), vehicle: carboxymethylcellulose (CMC)) was 0 of 3, 0 of 6, 2 of 6, 2 of 3. The survivor count (dose: 200.0 mg/kg/injection, schedule: Q04DX002 (ip), vehicle: carboxymethylcellulose (CMC)) was 0 of 3 and 0 of 6 and the survivor count (dose: 400.0 mg/kg/injection, schedule: Q04DX002 (ip), vehicle: carboxymethylcellulose (CMC)) was 0 of 3 and 0 of 6.

In the case of `COc1cc(Nc2c3ccccc3nc3ccccc23)ccc1NS(C)(=O)=O`, the T/C (dose: 5.0 mg/kg/injection, schedule: Q01DX009 (ip), vehicle: saline with Tween-80) was 141 % of control, the survivor count (dose: 20.0 mg/kg/injection, schedule: Q01DX009 (ip), vehicle: saline with Tween-80) was 9 of 10 and the survivor count (dose: 40.0 mg/kg/injection, schedule: Q01DX009 (ip), vehicle: saline with Tween-80) was 0 of 10.

In the case of `CCCN([Si](C)(C)C)[Si](C)(C)C`, the survivor count [1] was 3 of 6.

In the case of `CCc1cccc[n+]1CC(=O)c1ccccc1`, the survivor count (dose: 25.0 mg/kg/injection, schedule: Q01DX009 (ip), vehicle: saline) was 0 of 6, the survivor count (dose: 50.0 mg/kg/injection, schedule: Q04DX003 (ip), vehicle: saline) was 0 of 6 and the survivor count (dose: 100.0 mg/kg/injection, schedule: Q04DX003 (ip), vehicle: saline) was 0 of 6.

In the case of `N/N=C/NN=C(N)N`, the T/C (dose: 240.0 mg/kg/injection, schedule: Q01DX Z (oral), vehicle: saline) was 125 % of control, the survivor count (dose: 480.0 mg/kg/injection, schedule: Q01DX Z (oral), vehicle: saline) was 3 of 6 and the survivor count (dose: 960.0 mg/kg/injection, schedule: Q01DX Z (oral), vehicle: saline) was 0 of 6.

In the case of `O=NN(CCBr)C(=O)Nc1ccccc1`, the T/C (dose: 55.5 mg/kg/injection, schedule: Q01DX001 (ip), vehicle: carboxymethylcellulose (CMC)) was 140 % of control, the survivor count (dose: 250.0 mg/kg/injection, schedule: Q01DX Z (ip), vehicle: carboxymethylcellulose (CMC)) was 2 of 6 and the survivor count (dose: 400.0 mg/kg/injection, schedule: Q01DX Z (ip), vehicle: carboxymethylcellulose (CMC)) was 0 of 6. The survivor count (dose: 888.0 mg/kg/injection, schedule: Q01DX001 (ip), vehicle: carboxymethylcellulose (CMC)) was 2 of 10.

With `CN1CCC2(CC1)C(=O)N(CC1COc3ccccc3O1)C(=O)C2c1ccccc1` (centres undefined) the survivor count (dose: 200.0 mg/kg/injection, schedule: Q01DX001 (ip), vehicle: Klucel (hydroxypropylcellulose) (HPC)) was 0 of 6 and the survivor count (dose: 400.0 mg/kg/injection, schedule: Q01DX001 (ip), vehicle: Klucel (hydroxypropylcellulose) (HPC)) was 0 of 6.

In the case of `CC(C)C(CN)(CCN1CCCCC1)Cc1cccc2ccccc12` (centres undefined), the survivor count (dose: 200.0 mg/kg/injection, schedule: Q04DX003 (ip), vehicle: saline with Tween-80) was 1 of 6 and the survivor count [1] was 0 of 6.
